# At least one peptide structure holds a part that was inferred or is arguable (an end, a ring closure or a residue). Residues, ends and D or L forms follow the SMILES beside them.
# By UniProt entry, the sequences of proteins in these tests, tags left out. Residues count along the entry.
# UniProt Q62059, 24-3357: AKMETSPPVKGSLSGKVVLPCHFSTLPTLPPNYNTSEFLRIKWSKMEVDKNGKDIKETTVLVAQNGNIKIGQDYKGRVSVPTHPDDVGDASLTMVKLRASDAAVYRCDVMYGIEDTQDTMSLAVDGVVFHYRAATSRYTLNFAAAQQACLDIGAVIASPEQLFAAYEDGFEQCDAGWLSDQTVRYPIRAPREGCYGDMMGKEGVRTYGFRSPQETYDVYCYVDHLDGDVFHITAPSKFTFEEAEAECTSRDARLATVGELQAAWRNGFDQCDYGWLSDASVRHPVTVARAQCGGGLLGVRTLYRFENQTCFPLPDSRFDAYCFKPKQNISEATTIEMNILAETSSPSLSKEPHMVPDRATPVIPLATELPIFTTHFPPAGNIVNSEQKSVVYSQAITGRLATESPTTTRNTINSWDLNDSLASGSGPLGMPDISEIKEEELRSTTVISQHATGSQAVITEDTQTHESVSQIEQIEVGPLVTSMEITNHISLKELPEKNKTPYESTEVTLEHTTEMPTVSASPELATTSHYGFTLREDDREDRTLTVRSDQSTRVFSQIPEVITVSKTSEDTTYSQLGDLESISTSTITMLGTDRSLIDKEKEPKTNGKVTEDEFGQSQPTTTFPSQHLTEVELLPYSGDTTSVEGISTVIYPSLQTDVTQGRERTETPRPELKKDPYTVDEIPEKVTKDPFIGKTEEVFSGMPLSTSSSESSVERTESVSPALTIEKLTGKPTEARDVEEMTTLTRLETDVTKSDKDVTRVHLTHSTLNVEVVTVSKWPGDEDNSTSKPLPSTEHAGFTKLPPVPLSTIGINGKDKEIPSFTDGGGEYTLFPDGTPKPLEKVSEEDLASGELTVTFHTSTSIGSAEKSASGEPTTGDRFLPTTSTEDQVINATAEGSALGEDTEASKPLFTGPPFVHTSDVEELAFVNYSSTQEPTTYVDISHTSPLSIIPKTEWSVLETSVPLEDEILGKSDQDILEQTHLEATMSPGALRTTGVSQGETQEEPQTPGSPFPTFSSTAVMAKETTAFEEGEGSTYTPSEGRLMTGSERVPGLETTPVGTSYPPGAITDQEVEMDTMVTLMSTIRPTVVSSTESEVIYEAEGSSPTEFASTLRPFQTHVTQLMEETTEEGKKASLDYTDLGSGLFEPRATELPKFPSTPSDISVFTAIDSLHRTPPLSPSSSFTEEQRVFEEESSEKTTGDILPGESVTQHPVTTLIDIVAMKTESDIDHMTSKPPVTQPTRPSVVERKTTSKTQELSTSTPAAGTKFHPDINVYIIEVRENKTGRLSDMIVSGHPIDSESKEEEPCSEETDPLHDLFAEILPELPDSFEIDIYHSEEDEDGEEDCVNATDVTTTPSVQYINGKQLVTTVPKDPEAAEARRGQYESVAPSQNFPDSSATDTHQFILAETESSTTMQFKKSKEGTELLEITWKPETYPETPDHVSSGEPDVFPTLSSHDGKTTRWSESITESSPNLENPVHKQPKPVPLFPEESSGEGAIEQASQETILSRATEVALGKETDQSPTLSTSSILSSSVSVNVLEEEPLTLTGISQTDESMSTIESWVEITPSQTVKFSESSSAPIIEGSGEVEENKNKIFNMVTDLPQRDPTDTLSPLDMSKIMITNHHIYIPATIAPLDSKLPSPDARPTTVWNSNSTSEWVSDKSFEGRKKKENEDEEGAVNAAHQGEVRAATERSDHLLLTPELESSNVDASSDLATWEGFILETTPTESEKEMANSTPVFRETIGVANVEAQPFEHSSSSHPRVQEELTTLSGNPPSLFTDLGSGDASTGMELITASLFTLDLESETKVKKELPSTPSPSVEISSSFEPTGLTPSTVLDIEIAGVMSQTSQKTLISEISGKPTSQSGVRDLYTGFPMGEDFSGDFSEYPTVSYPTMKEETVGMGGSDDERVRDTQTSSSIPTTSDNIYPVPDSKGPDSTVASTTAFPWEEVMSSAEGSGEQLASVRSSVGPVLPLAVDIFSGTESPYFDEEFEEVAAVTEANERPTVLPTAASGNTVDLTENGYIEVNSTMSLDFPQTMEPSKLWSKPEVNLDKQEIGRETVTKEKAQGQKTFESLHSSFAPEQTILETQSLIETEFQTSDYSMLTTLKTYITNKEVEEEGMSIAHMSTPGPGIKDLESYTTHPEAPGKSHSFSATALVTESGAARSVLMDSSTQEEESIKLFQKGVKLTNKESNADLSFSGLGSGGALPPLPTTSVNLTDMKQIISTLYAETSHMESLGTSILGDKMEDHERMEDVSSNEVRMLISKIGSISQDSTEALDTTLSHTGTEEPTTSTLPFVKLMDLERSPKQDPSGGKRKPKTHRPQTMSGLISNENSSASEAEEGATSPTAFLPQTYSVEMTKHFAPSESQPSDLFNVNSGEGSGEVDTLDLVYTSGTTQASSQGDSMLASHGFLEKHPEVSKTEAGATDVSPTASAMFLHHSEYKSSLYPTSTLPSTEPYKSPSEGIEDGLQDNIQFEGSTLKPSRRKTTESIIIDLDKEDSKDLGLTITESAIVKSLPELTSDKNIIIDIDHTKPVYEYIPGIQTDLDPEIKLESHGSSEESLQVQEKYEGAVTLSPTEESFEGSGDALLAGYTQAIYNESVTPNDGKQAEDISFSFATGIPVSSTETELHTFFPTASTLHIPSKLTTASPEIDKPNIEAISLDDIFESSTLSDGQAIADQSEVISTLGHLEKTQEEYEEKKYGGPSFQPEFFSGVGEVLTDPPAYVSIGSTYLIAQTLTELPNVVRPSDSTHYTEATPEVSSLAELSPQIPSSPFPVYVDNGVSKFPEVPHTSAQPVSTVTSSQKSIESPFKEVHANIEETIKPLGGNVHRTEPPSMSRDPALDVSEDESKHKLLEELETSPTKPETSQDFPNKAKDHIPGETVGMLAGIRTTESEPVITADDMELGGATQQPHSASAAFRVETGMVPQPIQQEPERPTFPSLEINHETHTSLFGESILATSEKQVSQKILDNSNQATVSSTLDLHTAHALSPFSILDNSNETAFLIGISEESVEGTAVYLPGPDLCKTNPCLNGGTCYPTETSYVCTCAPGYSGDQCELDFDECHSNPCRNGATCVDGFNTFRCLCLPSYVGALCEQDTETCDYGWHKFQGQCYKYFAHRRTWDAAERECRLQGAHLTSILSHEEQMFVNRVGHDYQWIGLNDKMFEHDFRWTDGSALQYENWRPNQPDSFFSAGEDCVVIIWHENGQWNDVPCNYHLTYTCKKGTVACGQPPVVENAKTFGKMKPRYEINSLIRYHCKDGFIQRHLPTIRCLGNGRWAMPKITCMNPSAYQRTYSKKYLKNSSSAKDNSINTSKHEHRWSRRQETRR
# UniProt Q80WM4, 31-400: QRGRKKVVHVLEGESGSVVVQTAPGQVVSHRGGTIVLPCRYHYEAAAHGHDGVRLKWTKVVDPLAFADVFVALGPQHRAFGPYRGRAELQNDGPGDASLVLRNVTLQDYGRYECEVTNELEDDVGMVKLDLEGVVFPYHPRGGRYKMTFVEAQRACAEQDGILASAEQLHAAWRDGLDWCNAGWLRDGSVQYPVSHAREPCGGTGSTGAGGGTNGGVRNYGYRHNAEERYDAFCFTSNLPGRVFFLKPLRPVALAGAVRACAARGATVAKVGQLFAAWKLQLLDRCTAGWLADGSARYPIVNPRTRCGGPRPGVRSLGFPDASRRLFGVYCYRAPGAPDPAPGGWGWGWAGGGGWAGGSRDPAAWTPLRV
# Assays:
# [1] = test system: penetrating brain injury (PBI); type: in vivo, mouse
# Protocol: All animal experiments were conducted under an approved protocol of the Institutional Animal Care and Use Committee of Sanford Burnham Prebys Medical Discovery Institute. Eight to ten week old male BL6 mice were anesthetized with 4% isoflurane (Aerrane; Baxter, UK) in 70% N2O and 30% O2 and positioned in a stereotaxic frame. Using a head restraint, a 5-mm craniotomy was made using a portable drill and a trephine over the right parietotemporal cortex and the bone flap was removed. Penetrating brain injury model was used as described (Kielian et al., J. Immunol. 166:4634-4643 (2001); Kielian, J. Neuroinflammation 1:16 (2004)). Nine needle punctures using a 21 G needle were made 3 mm deep according to a 3×3 grid, spaced 1 mm in width and 1 mm in height. For traumatic brain injury, a Controlled Cortical Impact (CCI) model was used as described (Krajewska et al., PLoS One 6:e24341 (2011)). Mice were subjected to CCI using the benchmark stereotaxic impactor (Impact One™; myNeuroLab.com) with the actuator part mounted directly on the stereotaxic instrument. […] For the first 2 hours after injury, mice were closely monitored in their cages. […]
# Animals were intravenously injected, six hours after injury, with 50 nmoles of peptide dissolved in PBS, and allowed to circulate for 30 minutes. […] 10 μm thick sections were cut and analyzed by immunofluorescence. […]
# [2] = test system: controlled cortical impact injury (CCI); assay: Peptide homing in controlled cortical impact injury (CCI) model; type: in vivo, mouse
# [3] = test system: perforating injuries inflicted on the liver and skin; assay: Peptide homing to liver and skin injuries; type: in vivo, mouse; settings: 50 nmoles i.v. 6 hours after injury, 30 minutes circulation
# mouse brain sections = assay: Overlay binding of peptide-conjugated silver nanoparticles on mouse brain sections
# Versican core protein = biological target: T1, Versican core protein (Mus musculus, UniProt Q62059); assay: Peptide affinity chromatography and mass spectrometry of PBI brain extract; type: binding; settings: mouse PBI brain lysate 6 hrs after injury, eluted with 2 mM free CAQK; mean of three technical replicates
# T1 construct: from tissue; host or cells: mouse brain, 6 h after penetrating brain injury (detergent lysate)
# [4] = biological target: T2, Hyaluronan and proteoglycan link protein 4 (Mus musculus, UniProt Q80WM4); assay: as above; type: binding; settings: mouse PBI brain lysate 6 hrs after injury, eluted with 2 mM free CAQK; mean of three technical replicates
# T2 construct: from tissue; host or cells: mouse brain, 6 h after penetrating brain injury (detergent lysate)
# Tenascin-R = biological target: T3, Tenascin-R (Mus musculus, UniProt Q8BYI9); assay: as above; type: binding; settings: mouse PBI brain lysate 6 hrs after injury, eluted with 2 mM free CAQK; mean of three technical replicates
# T3 construct: from tissue; host or cells: mouse brain, 6 h after penetrating brain injury (detergent lysate)
# T3 sequence (Q8BYI9 32-1358): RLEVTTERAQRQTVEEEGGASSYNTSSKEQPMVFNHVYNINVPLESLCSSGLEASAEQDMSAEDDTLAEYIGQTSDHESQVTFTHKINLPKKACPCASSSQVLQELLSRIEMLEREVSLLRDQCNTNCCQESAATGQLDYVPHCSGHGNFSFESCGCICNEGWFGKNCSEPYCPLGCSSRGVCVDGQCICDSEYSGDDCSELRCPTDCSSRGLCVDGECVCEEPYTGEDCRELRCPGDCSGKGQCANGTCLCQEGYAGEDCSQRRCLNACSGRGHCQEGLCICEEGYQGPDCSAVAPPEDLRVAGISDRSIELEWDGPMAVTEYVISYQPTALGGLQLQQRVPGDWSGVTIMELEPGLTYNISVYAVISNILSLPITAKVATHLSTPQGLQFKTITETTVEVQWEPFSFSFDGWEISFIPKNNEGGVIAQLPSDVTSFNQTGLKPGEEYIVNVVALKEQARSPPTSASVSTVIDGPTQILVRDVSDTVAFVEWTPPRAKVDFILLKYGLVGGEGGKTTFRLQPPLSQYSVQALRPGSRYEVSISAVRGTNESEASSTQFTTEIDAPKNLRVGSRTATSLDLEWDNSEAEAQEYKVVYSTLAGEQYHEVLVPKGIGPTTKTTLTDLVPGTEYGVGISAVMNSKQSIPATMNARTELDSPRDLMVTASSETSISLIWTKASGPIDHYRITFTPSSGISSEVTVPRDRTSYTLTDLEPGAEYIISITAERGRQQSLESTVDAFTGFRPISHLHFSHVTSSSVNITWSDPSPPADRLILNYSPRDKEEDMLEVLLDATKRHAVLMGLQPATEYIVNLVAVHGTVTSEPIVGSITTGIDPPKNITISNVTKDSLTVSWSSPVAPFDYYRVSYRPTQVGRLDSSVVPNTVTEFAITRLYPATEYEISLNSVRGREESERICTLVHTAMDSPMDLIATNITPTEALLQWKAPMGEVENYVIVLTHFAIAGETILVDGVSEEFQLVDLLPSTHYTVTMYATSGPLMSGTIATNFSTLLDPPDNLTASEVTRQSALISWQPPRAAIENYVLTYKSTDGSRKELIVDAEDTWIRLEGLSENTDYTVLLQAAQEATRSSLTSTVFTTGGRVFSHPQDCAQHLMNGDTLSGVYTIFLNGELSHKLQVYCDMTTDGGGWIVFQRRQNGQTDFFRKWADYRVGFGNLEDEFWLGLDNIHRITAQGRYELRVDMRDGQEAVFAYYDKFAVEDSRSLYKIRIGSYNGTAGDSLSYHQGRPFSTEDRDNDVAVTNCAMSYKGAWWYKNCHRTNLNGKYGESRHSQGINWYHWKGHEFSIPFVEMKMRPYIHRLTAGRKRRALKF
# Protocol: For identifying CAQK binding proteins, mouse brains with brain injury were collected 6 hrs after injury. Using liquid nitrogen, the brains were crushed and ground into powder using a mortar and pestle. Next, brain tissue was lysed in PBS containing 200 mM n-octyl-beta-D-glucopyranoside and protease inhibitor cocktail (Roche) as described (Teesalu et al., PNAS 16157-16162 (2009)). The cleared lysate was loaded on to CAQK or control peptide (CGGK) coated Sulfolink-agarose beads (Pierce, Waltham, Mass.) and incubated at 4° C. for 3-4 hrs. The column was washed with wash buffer (75 mM octyl-beta-D-glucopyranoside and protease inhibitor cocktail in PBS) followed by washing with 0.5 mM control peptide in wash buffer to remove nonspecifically bound proteins. The bound proteins were eluted with 2 mM free CAQK peptide. The eluted factions were pooled, their protein concentration determined by using bicinchoninic acid (BCA) protein assay (Thermo Fischer) and the samples were digested using the Filter-aided Sample Preparation (FASP) method (Wisniewski et al., Nat Methods 6:359-362 (2009)). Finally, the digested samples were desalted, dried, and subjected to LC-MS/MS analysis at the Proteomics Core facility of the Sanford Burnham Prebys Medical Discovery Institute. All mass spectra were analyzed with MaxQuant software version 1.5.0.25. […] Empty column denotes protein was not detected.
# [5] = test system: ECM produced by U251 human astrocytoma cells; assay: Phage binding to ECM (ELISA protocol); settings: excess free CAQK peptide
compound,measurement,setting,value
C[C@H](NC(=O)[C@@H](N)CS)C(=O)N[C@@H](CCC(N)=O)C(=O)N[C@@H](CCCCN)C(N)=O [CAQK] (H-CAQK-NH2),Co-localization and cellular localization of i.v. injected peptide signal in injured brain,[1]; immunofluorescence of PBI brain sections,"co-localized with versican, tenascin-R and Hapln4"
same,Time after injury up to which homing to PBI was observed,[1]; time course after PBI,up to 5 days
same,Homing to injured area in CCI model,[2],homed to the injured area in the brain
same,Peptide accumulation in liver and skin injuries,[3],no peptide accumulation was detected
same,Inhibition of CAQK-NP binding by excess free peptide,mouse brain sections,near complete inhibition
same,"Log2 LFQ intensity, Versican core protein (VCAN) in column eluate",Versican core protein,25.98
same,"Log2 LFQ intensity, Hyaluronan and proteoglycan link protein 4 (HAPLN4) in column eluate",[4],19.84
same,"Log2 LFQ intensity, Tenascin-R (TNR) in column eluate",Tenascin-R,26.71
same,Inhibition of CAQK phage binding to ECM by free peptide,[5],inhibited

# Reference: patent US10653797B2, “Compounds and compositions for targeting brain injuries and methods of use thereof” (SANFORD BURNHAM PREBYS MEDICAL DISCOVERY INSTITUTE, priority 2015, dated 2020)
